# Measurements published in PubChem BioAssay AID540276 (National Center for Advancing Translational Sciences (NCATS), 2011).
# Screen size: about 300,000 compounds; about 5,400 (1.8%) were called active. The inconclusive results got no clear call from the source; some entries with a clear call stand among them for comparison. The call rests on the fitted dose curve; tested in HEK293 cells. A potency beside an inconclusive call is a rough fit, not a confirmed value.
# Experiment: qHTS for inhibitors of binding or entry into cells for Marburg Virus
# Details: Marburg virus pseudotyped entry inhibition, cell reporter; series mostly up to 37.8 µM
# Potency means the concentration at half of the fitted maximal effect.
row,SMILES,Potency
1,CS(=O)(=O)N1CCN(c2nc3ccccc3s2)CC1,"inconclusive: 1.46 µM [activator, full curve, poor fit]"
2,O=C(NNC(=O)c1ccc([N+](=O)[O-])o1)c1ccccc1,"inconclusive: 17.8 µM [inhibitor, single point]"
3,CCCc1noc2c1/C(=N\O)CC(CC(C)SCC)C2 (stereo not drawn),inactive
4,C=CCn1c(C)cc(C2=NNC(=NCc3ccccc3)SC2)c1C,"inconclusive: 10 µM [inhibitor, partial curve, poor fit]"
5,COc1ccccc1-n1c(=S)[nH]c2c(sc(=S)n2-c2ccccc2)c1=O,"inconclusive: 35.5 µM [inhibitor, single point]"
6,COc1cc(C(=O)NCc2nnc(SCC(=O)N3CCC(C)CC3)o2)cc(OC)c1OC,"inconclusive: 2.51 µM [inhibitor, full curve, poor fit]"
7,O=C(O)Cc1sc(=O)[nH]c1O,inactive
8,CC1=C2[C@H](O)[C@H]([C@@H](C)C(=O)NCCC(C)C)CC[C@@]2(C)C=CC1=O,inactive
9,CC(C)(C)NC(=O)NC(=O)COC(=O)C1c2ccccc2Oc2ccccc21,"inconclusive: 3.98 µM [inhibitor, single point]"
10,CC1=Nc2ccccc2N=C(NC(=O)CSc2nnnn2-c2ccccc2)C1c1ccccc1 (stereo not drawn),"inconclusive: 22.4 µM [inhibitor, single point]"
11,O=C1Cc2cc(S(=O)(=O)N3CCNCC3)ccc2N1,inactive
12,CC(=O)NCCC(=O)N1CCc2c([nH]c3ccccc23)C1c1cccc(C)c1 (stereo not drawn),"inconclusive: 11.2 µM [inhibitor, partial curve, poor fit]"
13,O=C(N/N=C\c1cccc(F)c1)c1ccc(Cn2cc(Br)c([N+](=O)[O-])n2)o1,"inconclusive: 5.62 µM [activator, single point]"
14,CCc1ccc(N(C(=O)c2csnn2)C(C(=O)NC2CCCCC2)c2ccncc2)cc1 (stereo not drawn),inactive
15,CN(C(=O)c1cccc([N+](=O)[O-])c1)c1ccccc1C(=O)NCc1ccccc1,"inconclusive: 0.891 µM [activator, full curve, poor fit]"
16,CCCCN(Cc1ccccc1)S(=O)(=O)c1cc(Br)cc2c1N(C(C)=O)C(C)C2 (stereo not drawn),"inconclusive: 29.1 µM [inhibitor, single point]"
17,Cc1cccc(Cn2cccc2/C=C2/C(=N)N3C=CSC3=NC2=O)c1,inactive
18,COc1ccc(OC(=O)c2nc(SCc3ccc(C)cc3)ncc2Cl)cc1,inactive
19,O=C1c2ccccc2C(=O)N1c1ncc(Cc2ccc(Cl)cc2)s1,"inconclusive: 3.98 µM [activator, full curve, poor fit]"
20,Cc1cccc(C)c1OCC(=O)NCC1(N2CCOCC2)CCCCC1,"inconclusive: 22.4 µM [inhibitor, single point]"
21,COc1ccc2nc(SCC(C)=O)c(C#N)cc2c1,"inconclusive: 6.31 µM [inhibitor, full curve, poor fit]"
22,CCN1CCN(Cc2c(O)ccc3c2O/C(=C\C=C\c2ccccc2)C3=O)CC1,"inconclusive: 5.8 µM [inhibitor, full curve, poor fit]"

row,SMILES,Potency
1,CCc1ccccc1NC(=O)C1=CC(c2ccc(OC)c(OC)c2)=NS(=O)(=O)N1C,"inconclusive: 22.4 µM [activator, partial curve, poor fit]"
2,CC(C)(C)C(=O)/C(=C\c1cccc([N+](=O)[O-])c1)n1cncn1,active: 2.24 µM
3,CCC(Cc1ccccc1)NC(=O)c1ccc2nc(N3CCC(C)CC3)sc2c1 (stereo not drawn),"inconclusive: 12.6 µM [activator, partial curve]"
4,O=C(Nc1cn(-c2ccccc2)nc1-c1ccc(Cl)cc1)c1ccccc1,"inconclusive: 35.5 µM [activator, single point]"
5,CC1=C(OC(=O)c2ccccc2)C(C)(C)C(c2ccc(Br)cc2)OC1=O (stereo not drawn),"inconclusive: 20 µM [inhibitor, single point]"
6,COc1cc2c(cc1Cl)/C(=C\CCN(C)C)c1ccccc1S2,"inconclusive: 11.2 µM [inhibitor, partial curve, poor fit]"
7,COc1ccc(CCNC(=O)c2ccccc2OCc2ccccc2)cc1,inactive
8,Cc1ccc(-c2nnc(-c3ccccc3)c(-c3ccccc3)n2)cc1,inactive
9,CSc1ccc(/C=C/C(=O)OCC(=O)c2ccc[nH]2)cc1,"inconclusive: 2.24 µM [activator, full curve, poor fit]"
10,O=c1n(-c2ccccc2)c(=O)n2n1CC[C@@H]1/C(=N/OC[C@@H](O)COCc3ccco3)[C@H]3O[C@H]3[C@@H](O)[C@@H]12,inactive
11,O=C(NC(=S)Nc1ccc(N2CCOCC2)cc1)c1ccc(Cl)cc1,"inconclusive: 11.2 µM [activator, partial curve, poor fit]"
12,Nc1c(C(=O)NCc2ccco2)nnn1Cc1ccccc1,inactive
13,O=C(COC(=O)CCOc1ccccc1)NCCc1ccccc1,"inconclusive: 1.26 µM [inhibitor, single point]"
14,CN(CCCNC(=O)CSc1cc(=O)n(C)c2ccc(Cl)cc12)Cc1ccccc1,"inconclusive: 10 µM [inhibitor, partial curve, poor fit]"
15,CC(NC(=O)c1ccc(OC2CCN(C(=O)c3cccnc3)CC2)cc1)C1CC1 (stereo not drawn),inactive
16,COc1ccc2c(c1)O[C@@H](c1cccc(C(F)(F)F)c1)[C@H](OC(=O)Nc1cc(OC)c(OC)c(OC)c1)C2=O,inactive
17,CCc1nn(CC(=O)NC(C)C)c(=O)c2cc3cc(F)ccc3n12,"inconclusive: 1.78 µM [inhibitor, partial curve, poor fit]"
18,CCCCOC(=O)NS(=O)(=O)c1sc(CC(C)C)cc1-c1ccc(Cn2c(CC)nc3c(C)cc(C)nc32)cc1,active: 10 µM
19,CC(C)(C)c1ccc(S(=O)(=O)N2CCCC2C(=O)N2CCOCC2)cc1 (stereo not drawn),inactive
20,Cc1sc(NC(=O)CN(CCc2ccccc2)C(=O)C2CC2)c(C(N)=O)c1C,"inconclusive: 11.2 µM [inhibitor, partial curve, poor fit]"
21,c1ccc2sc(NCC3CCCO3)nc2c1 (stereo not drawn),"inconclusive: 1.78 µM [activator, partial curve, poor fit]"
